The source of these data is the supplement of paper PMC10727501.

Details in all cases: 10 µM; pre-incubation: 30-90 min
For experiment [1], the system named is Danio rerio larvae (5 dpf, TLF). Kind of experiment: OMR-Perf (SSMD vs DMSO vehicle); higher = higher than vehicle (e.g. higher dark-flash O-bend response probability, or better optomotor performance).
Experiment [2] shares this test system. Kind of experiment: Prob-Test (SSMD vs DMSO vehicle); higher = higher than vehicle (e.g. higher dark-flash O-bend response probability, or better optomotor performance).
The test system is the same in experiment [3]. Nature of the experiment: Prob-Naive (SSMD vs DMSO vehicle); higher = higher than vehicle (e.g. higher dark-flash O-bend response probability, or better optomotor performance).
The test system is the same in experiment [4]. Kind of experiment: Prob-Train (SSMD vs DMSO vehicle); higher = higher than vehicle (e.g. higher dark-flash O-bend response probability, or better optomotor performance).

Structures are written as SMILES. The list shows a part of the results. This data set is noisy: repeats of one test often differ as much as different tests do.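 Free-swimming zebrafish larvae were assessed for O-bend response probability to dark flashes (naive: first five; training: remaining flashes across four 60-flash blocks; test: later 60-flash block) and for OMR turning toward alternating leftward/rightward LED motion. Six treated larvae were compared against sixty 0.1% DMSO controls; hits required |SSMD|≥2.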

As to `NS(=O)(=O)c1cc2c(cc1Cl)NC(C(Cl)Cl)NS2(=O)=O` (centres undefined) [Trichlormethiazide], the OMR-Perf in experiment [1] amounted to 0.364. The same compound displayed a Prob-Test in experiment [2] of 0.206. The compound further displayed a Prob-Naive in experiment [3] of -0.152. The compound further displayed a Prob-Train in experiment [4] of -0.125.
On the same counts, the results for `COc1ccc([C@@H]2Sc3ccccc3N(CCN(C)C)C(=O)[C@@H]2OC(C)=O)cc1.Cl` [Diltiazem HCl] are -0.00475, -0.117, -0.196 and -0.57.
On the same counts, the results for `C1=C/COCc2cc(ccc2OCCN2CCCC2)Nc2nccc(n2)-c2cccc(c2)COC/1` [Pacritinib (SB1518)] are -0.293, 0.773, 0.227 and 0.0414.
Consider `CCCc1nc(C(C)(C)O)c(C(=O)OCc2oc(=O)oc2C)n1Cc1ccc(-c2ccccc2-c2nn[nH]n2)cc1` [Olmesartan Medoxomil], for which the OMR-Perf in experiment [1] was determined as 0.051. In experiment [2], this compound registered a Prob-Test of -0.0305. For the same compound, the Prob-Naive in experiment [3] was -0.116. The compound further showed a Prob-Train in experiment [4] of -0.616.
In experiment [1], `Cc1cn(-c2cc(NC(=O)c3ccc(C)c(Nc4nccc(-c5cccnc5)n4)c3)cc(C(F)(F)F)c2)cn1` [Nilotinib (AMN-107)] displayed an OMR-Perf of -0.438. In experiment [2], this compound came in with a Prob-Test of 0.207. The same compound registered a Prob-Naive in experiment [3] of 0.00409. In experiment [4], this compound yielded a Prob-Train of -0.0948.
The like results for `CC(O)C(=O)O.CC(O)C(=O)O.CN1CCN(c2ccc3nc(-c4c(N)c5c(F)cccc5[nH]c4=O)[nH]c3c2)CC1` [Dovitinib (TKI-258) Dilactic Acid] were, in that order, 0.199, -0.0474, 0.319 and 0.117.
The like results for `Cc1cc2c(F)c(Oc3ncnn4cc(OC[C@@H](C)OC(=O)[C@H](C)N)c(C)c34)ccc2[nH]1` were, in that order, -0.203, -1.74, -0.266 and -1.05.
Regarding `CCCCCCOC(=O)/N=C(/N)c1ccc(NCc2nc3cc(C(=O)N(CCC(=O)OCC)c4ccccn4)ccc3n2C)cc1` [Dabigatran Etexilate], the OMR-Perf in experiment [1] was -0.135. For the same compound, the Prob-Test in experiment [2] was -0.16. Further, the Prob-Naive in experiment [3] came to 0.464. Also, the Prob-Train in experiment [4] was -0.0838.
In experiment [1], `N#C/C(=C(/N)Sc1ccc(N)cc1)c1ccccc1C(F)(F)F` showed an OMR-Perf of -0.459. Further, the Prob-Test in experiment [2] was -1.56. Also, the Prob-Naive in experiment [3] is -1.01. In experiment [4], the Prob-Train is -2.49.
On the same counts, the results for `C[C@@]12CCC3=C4CCC(=O)C=C4CC[C@H]3[C@@H]1CC[C@@]2(O)CC#N` [Dienogest] are -0.894, -0.798, 0.045 and -0.975.
The like results for `COc1ccc(-c2cc(=O)c3c(O)cc(O)cc3o2)cc1O` [Diosmetin] were, in that order, -0.351, -0.784, -0.298 and -0.413.
The like results for `Oc1ccc(/C=C/c2cc(O)cc(O)c2)cc1` [Resveratrol] were, in that order, -0.147, 0.384, 0.146 and 0.366.
For the compound `COc1cc2ncnc(Nc3ccc(O)c(Br)c3)c2cc1OC`, the OMR-Perf in experiment [1] is -0.0159. In addition, the Prob-Test in experiment [2] is -0.496. The Prob-Naive in experiment [3] was found to be 0.319. The Prob-Train in experiment [4] is -0.372.
On the same counts, the results for `CN[C@@H](C)C(=O)N[C@H](C(=O)N1CCC[C@H]1C(=O)Nc1snnc1-c1ccccc1)C1CCCCC1` are -0.0443, 0.367, 0.0243 and 0.29.
With `O=C(O)CC1CC(c2ccccc2)=NO1` (centres undefined), the OMR-Perf in experiment [1] turned out to be 0.633. In addition, the Prob-Test in experiment [2] is -0.44. In experiment [3], this compound returned a Prob-Naive of -0.233. This compound also had a Prob-Train in experiment [4] of -0.153.
The like results for `O[C@@H]1CO[C@@H]2[C@@H]1OC[C@@H]2O` [Isosorbide] were, in that order, -0.635, -0.0692, 0.351 and -0.0565.
